Results as given in US10801879B2, “Magnesium zinc oxide nanostructure modified biosensor and monitoring of response of cell population to an agent using the same” (Rutgers, The State University of New Jersey, priority 2015, dated 2020).
For some of these results: At least one structure is not confirmed: it was looked up by name or label, or the drawing left a doubt. Some entries share one result that the patent states for a list of compounds.

How the values were obtained:
Type in all cases: cell-based
[1] = test system: S. cerevisiae (yeast); assay: MZOnano-QCM monitoring of antifungal drug effects on yeast; settings: drug introduced at 330 min after initial growth seeding
Description: The result using various embodiments in this patent document accurately detects both drug effects in a rapid manner.
This is due to the fact that the spectroscopic method relies on light absorption by the suspended cells, and dead yeast cells remain in suspension, thus contributing to the absorption.

[2] = test system: resistant E. coli; assay: MZOnano-QCM detection of antimicrobial resistance of resistant E. coli; settings: tetracycline-resistant cells, 8 μg/mL
Method: (§1) The first example illustrates the application of a magnesium zinc oxide (MZO) nanostructure-modified quartz crystal microbalance (MZOnano-QCM) biosensor disclosed in this document with reference to FIGS. 1A and 1B to dynamically monitor antibiotic effects on sensitive and resistant E. coli cells. MZO-nanostructures were grown on a standard QCM top-electrode using metal-organic chemical-vapor deposition. ZnO and MZO nanostructured-films are chosen for their multi-functionality and biocompatibility. Their surface-wettability and morphology can be controlled, offering high-sensitivity to various biological/biochemical species. MZO can withstand a larger pH range than ZnO does. Combining advantages of MZO nanostructures with the dynamic impedance spectrum capability of QCM makes MZOnano-QCM a highly-sensitive dynamic biosensor well-suited for AMR detection. The growth of E. coli on ZnO and MZO nanostructures was determined by 90-minute incubation.
(§2) FIGS. 4A-4D show the detection of antibiotic effects on E. coli using regular QCM, ZnOnano-QCM and MZOnano-QCM. The regular QCM failed detection due to low sensitivity while both ZnOnano- and MZOnano-QCM enable accurate detection of bacterial count during active growth though frequency shifts (Δf). The MZOnano-QCM offered four-fold higher sensitivity than ZnOnano-QCM. […]

[3] = test system: antibiotic-sensitive E. coli; assay: MZOnano-QCM detection of antibiotic effects on sensitive E. coli; settings: tetracycline-sensitive cells, 8 μg/mL
Method: as §1, §2

Compound: C[C@@H]1[C@H](O)[C@@H](C)/C=C/C=C/C=C/C=C/C=C/C=C/C=C/[C@H](O[C@@H]2O[C@H](C)[C@@H](O)[C@H](N)[C@@H]2O)C[C@@H]2O[C@](O)(C[C@@H](O)C[C@@H](O)[C@H](O)CC[C@@H](O)C[C@@H](O)CC(=O)O[C@H]1C)C[C@H](O)[C@H]2C(=O)O [amphotericin]
- time of drug treatment within which effect was shown [1]: ≤ 1 h

Compound: Clc1ccc(COC(Cn2ccnc2)c2ccc(Cl)cc2Cl)c(Cl)c1 (stereo not shown) [miconazole]
- time of drug treatment within which effect was shown [1]: ≤ 1 h

Compound: CN(C)[C@@H]1C(O)=C(C(N)=O)C(=O)[C@@]2(O)C(O)=C3C(=O)c4c(O)cccc4[C@@](C)(O)[C@H]3C[C@@H]12 [tetracycline]
- bacteriostatic effect (flattened signal output) [2]: not on tetracycline-resistant cells
- signal output upon antibiotic treatment [3]: flattened signal output
